Experimental data as given in patent US20130053310A1 (NOVO NORDISK A/S, priority 2010, published 2013).

Assay: general procedure: Fmoc solid-phase peptide synthesis; pre-loaded low-load Wang resin (e.g. Fmoc-Thr(tBu)-Wang LL, 0.27 mmol/g) for C-terminal acids; PAL-ChemMatrix for C-term
Details: whole synthesis, UPLC

Row | Substance | final HPLC purity [%] | final HPLC purity (run 1) [%] | final HPLC purity (run 2) [%]
1 | [Arg^25, Leu^27, Glu^28]-Glucagon | 100 |  | 
2 | [Arg^25, Leu^27]-Glucagon |  | 98 | 100
3 | [Glu^15, Glu^21, Arg^25, Leu^27]-Glucagon |  | 100 | 98
4 | [Glu^21, Arg^25, Leu^27, Ser^28]-Glucagon |  | 97 | 100
5 | [Glu^21, Arg^25, Leu^27]Glucagon |  | 98 | 100
6 | [Glu^21, Lys^25, Leu^27]-Glucagon |  | 98 | 100
7 | [His^25, Leu^27]-Glucagon | 96 |  | 
8 | [Lys^25, Leu^27]-Glucagon |  | 98 | 100
